# Test results as given in patent US8143212B2 (Vicuron Pharmaceuticals Inc., priority 2002, dated 2012).
# Tested on: N,N′-diacetyl-Lys-D-Ala-D-Ala
# Experiment: Isothermal titration calorimetry of tri-peptide binding, with and without HSA (Table 39)
structure (smiles),measurement,setting,value
CN[C@H](CC(C)C)C(=O)N[C@H]1C(=O)N[C@@H](CC(N)=O)C(=O)N[C@H]2C(=O)N[C@H]3C(=O)N[C@H](C(=O)N[C@H](C(=O)O)c4cc(O)cc(O)c4-c4cc3ccc4O)[C@H](O)c3ccc(c(Cl)c3)Oc3cc2cc(c3O[C@@H]2O[C@H](CO)[C@@H](O)[C@H](O)[C@H]2O[C@H]2C[C@](C)(N)[C@H](O)[C@H](C)O2)Oc2ccc(cc2Cl)[C@H]1O [Vancomycin],ΔH,"T 10 ° C., [HSA] 0 μM",-9.49 kcal/mol
same,ΔS,"T 10 ° C., [HSA] 0 μM",−6.80 eu
same,ΔH,"T 25 ° C., with HSA 513 μM",-10.09 kcal/mol
